Results on eight substances are retold here after publication PMC6646356, “The AAA + ATPase TorsinA polymerizes into hollow helical tubes with 8.5 subunits per turn” (Nature Communications, 2019).

The chains behind the UniProt entries cited, without tags or fusion partners. Where a name states a change or a piece, a line headed by the entry shows the natural chain unless it says otherwise. A line that says so, or that is headed by a name, gives the form on record, which may keep a tag or linker. Residues count along the entry.
MBP-TorsinA E171Q (residues 51–332) (O14656, form named): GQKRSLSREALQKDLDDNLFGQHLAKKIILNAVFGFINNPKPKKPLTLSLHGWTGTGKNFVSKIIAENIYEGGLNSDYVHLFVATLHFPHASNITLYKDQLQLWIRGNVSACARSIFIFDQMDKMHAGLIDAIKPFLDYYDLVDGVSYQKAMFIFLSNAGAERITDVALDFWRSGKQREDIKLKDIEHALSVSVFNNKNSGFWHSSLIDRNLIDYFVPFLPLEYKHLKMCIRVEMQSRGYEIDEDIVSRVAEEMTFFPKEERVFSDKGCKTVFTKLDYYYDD
TorsinA D188A (O14656, form named): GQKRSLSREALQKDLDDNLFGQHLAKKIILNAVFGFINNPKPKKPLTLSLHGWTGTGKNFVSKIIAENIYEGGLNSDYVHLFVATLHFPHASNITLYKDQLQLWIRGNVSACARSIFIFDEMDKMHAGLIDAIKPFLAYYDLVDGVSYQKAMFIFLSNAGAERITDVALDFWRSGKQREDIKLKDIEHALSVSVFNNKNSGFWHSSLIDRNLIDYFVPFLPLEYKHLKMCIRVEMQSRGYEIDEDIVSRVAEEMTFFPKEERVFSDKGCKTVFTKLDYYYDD
TorsinA D188Y (O14656, form named): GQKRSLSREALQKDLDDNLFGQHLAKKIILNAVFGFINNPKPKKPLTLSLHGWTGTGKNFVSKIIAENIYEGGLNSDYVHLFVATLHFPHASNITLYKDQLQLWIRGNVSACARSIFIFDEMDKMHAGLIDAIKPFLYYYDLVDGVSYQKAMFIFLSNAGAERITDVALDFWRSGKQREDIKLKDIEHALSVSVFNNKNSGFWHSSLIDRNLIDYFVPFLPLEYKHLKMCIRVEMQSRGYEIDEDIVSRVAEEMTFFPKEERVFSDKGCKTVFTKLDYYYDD
TorsinA D264A (O14656, form named): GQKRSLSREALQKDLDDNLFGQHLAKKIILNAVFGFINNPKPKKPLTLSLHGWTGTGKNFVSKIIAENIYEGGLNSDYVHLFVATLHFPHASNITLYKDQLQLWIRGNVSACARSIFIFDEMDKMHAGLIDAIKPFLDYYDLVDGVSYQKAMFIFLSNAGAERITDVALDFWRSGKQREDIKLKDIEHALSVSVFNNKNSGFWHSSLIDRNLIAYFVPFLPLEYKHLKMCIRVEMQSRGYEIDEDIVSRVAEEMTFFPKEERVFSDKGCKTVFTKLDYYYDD
TorsinA G251Y (O14656, form named): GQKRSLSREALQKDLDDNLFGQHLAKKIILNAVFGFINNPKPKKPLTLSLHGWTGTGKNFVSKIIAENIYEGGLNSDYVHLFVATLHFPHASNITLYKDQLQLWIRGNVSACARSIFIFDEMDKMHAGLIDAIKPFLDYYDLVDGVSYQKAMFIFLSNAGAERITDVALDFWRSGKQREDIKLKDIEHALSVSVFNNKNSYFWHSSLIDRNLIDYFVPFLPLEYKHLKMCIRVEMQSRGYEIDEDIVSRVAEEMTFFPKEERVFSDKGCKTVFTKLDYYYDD
TorsinA K148E (O14656, form named): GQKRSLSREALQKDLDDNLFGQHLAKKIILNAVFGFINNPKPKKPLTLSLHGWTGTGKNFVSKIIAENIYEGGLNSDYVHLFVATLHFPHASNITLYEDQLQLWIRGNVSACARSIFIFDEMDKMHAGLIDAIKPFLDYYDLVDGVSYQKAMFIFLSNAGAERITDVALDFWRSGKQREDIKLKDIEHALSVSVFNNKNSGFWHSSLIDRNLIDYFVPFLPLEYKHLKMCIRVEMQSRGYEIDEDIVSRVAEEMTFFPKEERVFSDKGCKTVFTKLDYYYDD
TorsinA K184E (O14656, form named): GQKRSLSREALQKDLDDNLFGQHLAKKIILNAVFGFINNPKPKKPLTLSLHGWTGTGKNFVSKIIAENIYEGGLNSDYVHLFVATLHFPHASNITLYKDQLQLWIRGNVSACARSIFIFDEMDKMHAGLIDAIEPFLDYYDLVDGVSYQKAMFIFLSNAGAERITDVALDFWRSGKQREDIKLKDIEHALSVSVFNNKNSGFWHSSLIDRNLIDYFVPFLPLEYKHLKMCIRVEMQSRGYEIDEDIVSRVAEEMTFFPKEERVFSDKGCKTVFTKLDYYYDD
TorsinAΔE (deletion of glutamate 303) (O14656, form named): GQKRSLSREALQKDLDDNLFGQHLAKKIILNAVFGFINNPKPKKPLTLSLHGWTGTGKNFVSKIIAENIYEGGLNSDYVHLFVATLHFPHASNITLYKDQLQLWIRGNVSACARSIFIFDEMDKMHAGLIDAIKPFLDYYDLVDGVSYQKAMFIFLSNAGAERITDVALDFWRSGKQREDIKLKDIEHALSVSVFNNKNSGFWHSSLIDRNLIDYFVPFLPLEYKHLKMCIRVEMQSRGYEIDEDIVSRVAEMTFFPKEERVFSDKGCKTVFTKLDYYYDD

Results are given in words; binding and its absence hold for the method and conditions named.

Assay in all cases: negative-stain electron microscopy; purified TorsinA variants without liposomes, diluted in ATP-containing buffer (HEPES/NaOH pH 8.0, NaCl, 10 mM MgCl2, ATP), 2% uranyl acetate stain; filament formation (self-polymerisation); MBP tag uncleaved or cleaved with 3C protease; both purified
Test [1] addresses MBP-TorsinA E171Q (residues 51–332) (human) (UniProt O14656).
Test [2] concerns the target TorsinA D188A (human) (UniProt O14656).
Test [3] has as its target TorsinA D188Y (human) (UniProt O14656).
For test [4], the target named is TorsinA D264A (human) (UniProt O14656).
For test [5], the target named is TorsinA G251Y (human) (UniProt O14656).
The target in test [6] is TorsinA K148E (human) (UniProt O14656).
The target in test [7] is TorsinA K184E (human) (UniProt O14656).
Test [8] addresses TorsinAΔE (deletion of glutamate 303) (human) (UniProt O14656).

In the case of “MBP-TorsinA E171Q (residues 51–332) (from UniProt O14656 51-332) (domain or fragment)”, the binding entry in test [1] is “no binding”.
Turning to “TorsinA D188A (from UniProt O14656 51-332) (domain or fragment)”, in test [2], the binding entry was “no binding”.
Consider “TorsinA D188Y (from UniProt O14656 51-332) (domain or fragment)”, for which the binding result in test [3] is “no binding”.
“TorsinA D264A (from UniProt O14656 51-332) (domain or fragment)”: the binding result in test [4] is recorded as “no binding”.
Consider “TorsinA G251Y (from UniProt O14656 51-332) (domain or fragment)”, for which the binding entry in test [5] is recorded as “no binding”.
For “TorsinA K148E (from UniProt O14656 51-332) (domain or fragment)”, the binding result in test [6] is recorded as “no binding”.
As for “TorsinA K184E (from UniProt O14656 51-332) (domain or fragment)”, the binding entry in test [7] was “no binding”.
As for “TorsinAΔE (deletion of glutamate 303) (from UniProt O14656 51-332) (domain or fragment)”, the binding entry in test [8] was “no binding”.
